Measurements from publication PMC12431657, “Discovery and mechanistic insights of dibenzoylmethane as a broad spectrum inhibitor of coronavirus” (PLOS Pathogens, 2025).
Counter-ions that a name gives are not always drawn. Like-named read-outs stand apart in the source and are kept apart here. The whole screen tested about 3,300 compounds, of which about 60 (2%) showed an effect of 50% or more. The list shows a part of the results.

System: HCoV-OC43
Design: species or system RD; HTS, protection from HCoV-OC43 induced cell death, luminescent cell viability (CellCounting-Lite 2.0), inhibition rate
Conditions: 24 h post infection, 1 h compound pre-incubation, 10 µM, inhibitor

Structure (SMILES)	OC43 Inhibition rate [%]	OC43 Inhibition rate (OC43 Inhibition rate, 24 h) [%]
CC(=O)OCC1=C[C@H](O)[C@@H]2C(C(=O)O)=CO[C@@H](O[C@@H]3O[C@H](CO)[C@@H](O)[C@H](O)[C@H]3O)[C@H]12 [Asperulosidic Acid]	0.4	–
N[C@@H](Cc1cc(I)c(Oc2cc(I)c(O)c(I)c2)c(I)c1)C(=O)O [L-Thyroxine]	1	–
Cc1cc(=O)oc2cc(O)c(O)cc12 [4-Methylesculetin]	-0.2	–
CSC(=O)OCC1=C[C@@H]2OC(=O)C3=CO[C@@H](O[C@@H]4O[C@H](CO)[C@@H](O)[C@H](O)[C@H]4O)[C@H]1[C@@H]32 [Paederoside]	-0.4	–
O=C(O)C(O)Cc1ccc(O)c(O)c1 (centres unmarked) [Danshensu (sodium salt)]	-1.1	–
O=C[C@H](O)[C@@H](O)[C@H](O)CO [Xylose]	–	1.2
CC1=CC(=O)C(C(C)C)=CC1=O [Thymoquinone]	2.8	–
CCCCCC/C=C\CCCCCCCC(=O)O [Palmitoleic acid]	0.2	–
O=C1/C(=C/c2ccc(O)c(O)c2)COc2cc(O)ccc21 [Sappanone A]	25.2	–
CCC(C)(C)C(=O)O[C@H]1C[C@@H](C)C=C2C=C[C@H](C)[C@H](CC[C@@H](O)C[C@@H](O)CC(=O)O)[C@H]21 [Simvastatin acid (ammonium)]	5	–
N[C@H]1[C@H](O[C@H]2[C@H](O)[C@@H](N)[C@H](O[C@H]3[C@H](O)[C@@H](N)[C@H](O[C@@H]([C@H](O)[C@@H](N)C=O)[C@H](O)CO)O[C@@H]3CO)O[C@@H]2CO)O[C@H](CO)[C@@H](O)[C@@H]1O [Chitotetraose (tetrahydrochloride)]	-0.2	–
O=C(O)CC(O)(CC(=O)O)C(=O)O [Citric acid]	–	-0.4
O=Cc1ccccc1O[C@@H]1O[C@H](CO)[C@@H](O)[C@H](O)[C@H]1O [Helicin]	7.3	–
CCCCCCC/C=C\C(=O)O [(Z)-2-Decenoic acid]	29.5	–
CC1(C)[C@@H](O[C@H]2O[C@H](C(=O)O)[C@@H](O)[C@H](O)[C@H]2O[C@@H]2O[C@H](C(=O)O)[C@@H](O)[C@H](O)[C@H]2O)CC[C@]2(C)[C@H]3C(=O)C=C4[C@@H]5C[C@@](C)(C(=O)O)CC[C@]5(C)CC[C@@]4(C)[C@]3(C)CC[C@@H]12 [Glycyrrhizic acid]	–	-0.1
CC1=CC(=O)CC(C)(C)C1(O)/C=C/C(C)=C\C(=O)O (racemic) [(±)-Abscisic acid]	–	-0.8

Structure (SMILES)	OC43 Inhibition rate [%]	OC43 Inhibition rate (OC43 Inhibition rate, 24 h) [%]
CC(=O)O[C@H]1C(=O)[C@@]2(C)[C@H]([C@H](OC(=O)c3ccccc3)[C@]3(O)C[C@H](OC(=O)[C@H](O)[C@@H](NC(=O)c4ccccc4)c4ccccc4)C(C)=C1C3(C)C)[C@]1(OC(C)=O)CO[C@@H]1C[C@@H]2O [Paclitaxel]	–	32.2
O=C(O)Cc1c[nH]c2ccccc12 [3-Indoleacetic acid]	-0.9	–
C[C@@H]1O[C@@H](OC[C@H]2O[C@@H](OCCc3ccc(O)c(O)c3)[C@H](O)[C@@H](O[C@@H]3O[C@@H](C)[C@H](O)[C@@H](O)[C@H]3O)[C@@H]2OC(=O)/C=C/c2ccc(O)c(O)c2)[C@H](O)[C@H](O)[C@H]1O [Poliumoside]	-0.3	–
CC(C(=O)O)c1ccccc1 (centres unmarked) [2-Phenylpropionic acid]	-0.3	–
N[C@@H](CO)C(=O)O [L-Serine]	0.9	–
CC(=O)O[C@@H]1C[C@]23C4=CC[C@@]5(C)[C@H](C(=O)O)[C@@](C)([C@H](C)C(C)C)CC[C@]5(C)[C@H]4CC[C@H]2[C@@](C)(COC3O)[C@H]1O[C@@H]1O[C@H](CO)[C@@H](O)[C@H](O)[C@H]1O (some centres unmarked) [Enfumafungin]	0.2	–
C[C@@H]1O[C@@H](O[C@H]2[C@H](O)[C@@H](O)[C@H](O[C@H]3CC[C@]4(C)[C@H]5C=C[C@]67OC[C@@]8(CCC(C)(C)C[C@H]86)[C@@H](O)C[C@@]7(C)[C@]5(C)CC[C@H]4C3(C)C)O[C@@H]2CO[C@@H]2O[C@H](CO)[C@@H](O)[C@H](O)[C@H]2O)[C@H](O)[C@H](O)[C@H]1O [Saikosaponin C]	1.5	–
CC(C)=CCC/C(C)=C/CC/C(C)=C/CC/C=C(\C)CC/C=C(\C)CCC=C(C)C [Squalene]	3.4	–
O=C(O[C@@H]1Cc2c(O)cc(O)cc2O[C@@H]1c1cc(=O)c(O)c2c(O)c(O)cc([C@H]3Oc4cc(O)cc(O)c4C[C@H]3O)c2c1)c1cc(O)c(O)c(O)c1 [Theaflavin-3'-gallate]	–	-5.1
CSCC[C@H](NC(=O)[C@H](CC(C)C)NC(=O)CNC(=O)[C@H](Cc1ccccc1)NC(=O)[C@H](Cc1ccccc1)NC(=O)[C@H](CCC(N)=O)NC(=O)[C@H](CCC(N)=O)NC(=O)[C@@H]1CCCN1C(=O)[C@H](CCCCN)NC(=O)[C@@H]1CCCN1C(=O)[C@@H](N)CCCN=C(N)N)C(N)=O [Substance P]	-0.8	–
COc1ccc(-c2coc3cc(OC)ccc3c2=O)cc1 [4',7-Dimethoxyisoflavone]	2.4	–
COc1ccc(C(=O)O)c(O)c1 [2-Hydroxy-4-methoxybenzoic acid]	0.3	–
C[C@H]1O[C@@H](O[C@H]2CC[C@@]3(C)[C@@H](CC[C@]4(C)[C@@H]3C=CC3=C5CC(C)(C)CC[C@]5(CO)[C@H](O)C[C@]34C)[C@]2(C)CO)[C@H](O)[C@@H](O[C@@H]2O[C@H](CO)[C@@H](O)[C@H](O)[C@H]2O)[C@H]1O [Saikosaponin B2]	0.7	–
NCCCNCCCCNCCCN [Spermine]	2	–
CC1(C)C=Cc2c(ccc(C(=O)/C=C/c3ccc(O)cc3)c2O)O1 [Isobavachromene]	–	27.5
CC(C)CCC[C@@H](C)[C@H]1CC[C@H]2[C@@H]3CC(=O)[C@H]4C[C@@H](O)CC[C@]4(C)[C@H]3CC[C@]12C [6-Ketocholestanol]	13.8	–

6 entries from above, in CSV form:
Structure (SMILES),OC43 Inhibition rate [%],"OC43 Inhibition rate (OC43 Inhibition rate, 24 h) [%]"
CC(C(=O)O)c1ccccc1 (centres unmarked) [2-Phenylpropionic acid],-0.3,–
N[C@@H](CO)C(=O)O [L-Serine],0.9,–
CC(=O)O[C@@H]1C[C@]23C4=CC[C@@]5(C)[C@H](C(=O)O)[C@@](C)([C@H](C)C(C)C)CC[C@]5(C)[C@H]4CC[C@H]2[C@@](C)(COC3O)[C@H]1O[C@@H]1O[C@H](CO)[C@@H](O)[C@H](O)[C@H]1O (some centres unmarked) [Enfumafungin],0.2,–
O=C(O[C@@H]1Cc2c(O)cc(O)cc2O[C@@H]1c1cc(=O)c(O)c2c(O)c(O)cc([C@H]3Oc4cc(O)cc(O)c4C[C@H]3O)c2c1)c1cc(O)c(O)c(O)c1 [Theaflavin-3'-gallate],–,-5.1
CSCC[C@H](NC(=O)[C@H](CC(C)C)NC(=O)CNC(=O)[C@H](Cc1ccccc1)NC(=O)[C@H](Cc1ccccc1)NC(=O)[C@H](CCC(N)=O)NC(=O)[C@H](CCC(N)=O)NC(=O)[C@@H]1CCCN1C(=O)[C@H](CCCCN)NC(=O)[C@@H]1CCCN1C(=O)[C@@H](N)CCCN=C(N)N)C(N)=O [Substance P],-0.8,–
COc1ccc(C(=O)O)c(O)c1 [2-Hydroxy-4-methoxybenzoic acid],0.3,–
